Tested on: thyroid hormone receptor in nuclei of intact GC cells
Assay type: cell-based, rat
Conditions: Allfit program

Row | SMILES | b (slope factor)
1 | N[C@@H](Cc1cc(I)c(Oc2ccc(O)c(I)c2)c(I)c1)C(=O)O [T3, triiodothyronine] | 1.0 ± 0.1
2 | CCCCc1oc2ccccc2c1C(=O)c1cc(I)c(OCCN(CC)CC)c(I)c1 [amiodarone, 2-butyl-3-[3,5-diiodo-4-(β-diethylaminoethoxy)-benzoyl]benzofuran] | 0.9 ± 0.4

Reference: patent publication US5500807A, “Selection method for pharmacologically active compounds” (The Regents of the University of California, priority 1992, dated 1996)
